Patent publication US4946964A, “Photographic compounds” (Polaroid Corporation, priority 1987, dated 1990)

Test: sensitometry of diffusion transfer film unit, Example XX (compound in dye layer)
Source text: The experiment of Example XIX was repeated with the exception that compound V was incorporated in the dye layer at the same coverage and was not present in the silver halide emulsion layer.

`CC(CSc1nnnn1-c1ccc(O)cc1)=NO` [V] gave a Dmax (45° F.) of 2.43, a Dmin (45° F.) of 0.24 and a Speed (45° F.) of 1.09. The Dmax (75° F.) was 2.45, the Dmin (75° F.) was 0.19 and the Speed (75° F.) was 1.18. The Dmax (105° F.) was 2.12, the Dmin (105° F.) was 0.15 and the Speed (105° F.) was 1.31.
